Data: PubChem BioAssay AID2685 (National Center for Advancing Translational Sciences (NCATS), 2010)
In all, about 320,000 compounds went through this assay and about 2,100 (0.66%) were called active. Inconclusive means that the source gave no clear call. Such entries were picked first, then a sample of the others. The call rests on the fitted dose curve; in most records, active means well fitted inhibition curve with a large enough effect in the signal ratio, with a control signal flat (not every such curve was filed as active); inconclusive means small, poorly fitted or top-dose-only effect, or effect the other way, or a change in a side signal; inactive means flat fitted curve, though single readings scatter; the % refers to the signal ratio. A potency beside an inconclusive call is a rough fit, not a confirmed value.

experiment: qHTS Assay for Lipid Storage Modulators in Drosophila S3 Cells; settings: BODIPY lipid droplet fluorescence, 18-24 h, cells fed with added oleic acid; lipid storage change, negative = inhibition: at 46.1 µM (top of the series) unless noted
Outline: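 Drosophila S3 cells got compounds at several concentrations plus oleic acid (400 uM solution). Laser-scanning cytometry with 488 nm excitation read lipid droplets at 500-530 nm and cells at 575-640 nm. Percent activity was relative to 20 uM Triacsin C.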
On the % scale 0 is the no-effect control and ±100 the full control effect; potency means the concentration at half of the fitted maximal effect.

Q: Which Potency does the source give for `O=C(CCC(=O)c1ccc(F)cc1)OCc1nnc(-c2ccc([N+](=O)[O-])cc2)o1` here?
A: inconclusive: 7.31 µM [falling, partial curve, poor fit]

Q: With `COc1cc(CNCCNC(=O)c2nonc2N)ccc1OCc1ccc(Cl)cc1` as the compound, how does the Potency read?
A: inconclusive: 32.6 µM [falling, single point]

Q: With `COc1cc(S(=O)(=O)N2CCN=C2c2ccccc2)ccc1Cl` as the compound, how does the Potency read?
A: inconclusive: 0.291 µM [falling, partial curve, poor fit]

Q: Which “lipid storage change, negative = inhibition” value does the source give for `COc1ccccc1NS(=O)(=O)c1cccc(C(=O)N2CCN(C/C=C/c3ccccc3)CC2)c1` here?
A: inactive: -18.7%

Q: With `CCOC(=O)C(=O)N1CCN(c2nc(-c3ccc(Cl)cc3)cs2)CC1` as the compound, how does the lipid storage change, negative = inhibition read?
A: inconclusive: 1.39%

Q: With `CCN(C(=O)COC(=O)C1CC1)c1c(N)n(Cc2ccccc2)c(=O)[nH]c1=O` as the compound, how does the Potency read?
A: inconclusive: 29.1 µM [activator, single point]

Q: For `CCCC[C@H]1COCCS(=O)(=O)N1Cc1ccc(C)cc1`, which lipid storage change, negative = inhibition is on record?
A: inconclusive: -2.74%

Q: Which lipid storage change, negative = inhibition does the source give for `CC(=O)c1cccc(NC(=O)Cn2cnc(S(=O)(=O)N3CCCCC3)c2)c1` here?
A: inconclusive: 32.3%

Q: Which lipid storage change, negative = inhibition does the source give for `CCCC[C@@H]1CNC(=O)C(=O)N1CC(C)(C)C` here?
A: inconclusive: 19.1%

Q: With `Cc1ccc(C2=NOC(=O)/C2=C\C=C\c2ccccc2)cc1` as the compound, how does the Potency read?
A: active: 4.61 µM

Q: For `Cc1cnc(C(=O)OCC(=O)Nc2ccc(Br)cc2F)cn1`, which Potency is on record?
A: inconclusive: 29.1 µM [activator, single point]

Q: Which lipid storage change, negative = inhibition does the source give for `N#Cc1nc(-c2ccco2)oc1NCCN1CCOCC1` here?
A: inconclusive: -6.41%

Q: With `CC(C)N(C(=O)c1sc2cc([N+](=O)[O-])ccc2c1Cl)C(C)C` as the compound, how does the lipid storage change, negative = inhibition read?
A: inconclusive: 1.79%

Q: For `CCc1ccc(N2CC(C(=O)N/N=C/c3ccccc3OC)CC2=O)cc1` (centres undefined), which lipid storage change, negative = inhibition is on record?
A: inconclusive: 40.6%

Q: For `O=C(CCCC(=O)N(CC(=O)NC1CCCCC1)c1cccc(F)c1)Nc1ccccn1`, which lipid storage change, negative = inhibition is on record?
A: inconclusive: 34.5%

Q: For `CCOc1ccc(S(=O)(=O)N2CCC(C(=O)NCCc3ccc(S(N)(=O)=O)cc3)CC2)cc1`, which Potency is on record?
A: inconclusive: 29.1 µM [activator, single point]

Q: With `Cc1ccc(S(=O)(=O)N(CC(=O)NCCSc2ccccn2)c2ccccc2F)cc1` as the compound, how does the Potency read?
A: inconclusive: 1.16 µM [falling, single point]

Q: For `C/C(=N\Nc1ccc(F)cc1F)c1cccs1`, which lipid storage change, negative = inhibition is on record?
A: inconclusive: -33.7%

Q: For `CC(=O)C1C(c2ccccc2Cl)NC(=O)NC1(O)C(F)(F)F` (centres undefined), which lipid storage change, negative = inhibition is on record?
A: inconclusive: -66.5%

Q: With `Cc1nnc(C)c2c(C)n(Cc3ccc4c(c3)OCO4)c(C)c12` as the compound, how does the Potency read?
A: inconclusive: 1.64 µM [activator, partial curve]

Q: With `C(=N\N1CCN(Cc2cccc3ccccc23)CC1)/c1cccnc1` as the compound, how does the lipid storage change, negative = inhibition read?
A: inconclusive: -43.7%

Q: For `Cc1cccc(C(=O)Nc2nc3ccc(S(C)(=O)=O)cc3s2)c1`, which Potency is on record?
A: inconclusive: 10.3 µM [falling, single point]

Q: For `COCCN(C(=O)CCC(=O)Nc1cc(C)on1)C(C(=O)NC1CCCC1)c1ccccc1C` (centres undefined), which “lipid storage change, negative = inhibition” value is on record?
A: inactive: 7.32%

Q: Which lipid storage change, negative = inhibition does the source give for `CCN1C(=NCCc2cccs2)N[C@@H](CCc2ccccc2)[C@H](C(=O)NCCc2cccs2)[C@H]1C` here?
A: inconclusive: -52.1%

Q: Which lipid storage change, negative = inhibition does the source give for `O=C(CN1C(=O)c2ccccc2C1=O)Nc1ccc(N2CCOCC2)cc1` here?
A: inconclusive: -52.6%

Q: Which lipid storage change, negative = inhibition does the source give for `COCCn1nnnc1C1(N(Cc2cc3cc(C)ccc3[nH]c2=O)CC2CCCO2)CCN(C)CC1` (centres undefined) here?
A: inconclusive: -2.43%

Q: For `COc1c(Cl)cnn(-c2ccccc2)c1=O`, which “lipid storage change, negative = inhibition” value is on record?
A: inactive: 5.58%

Q: Which “outcome” value does the source give for `Cn1c(=O)oc2cc(S(=O)(=O)N3CCCCC3)ccc21` here?
A: inactive [at 46.1 µM]

Q: Which lipid storage change, negative = inhibition does the source give for `S=C(NC1CCCCCC1)NC1CCCC1` here?
A: inconclusive: -19%

Q: For `Cc1ccccc1NCc1nnc2n1CCCCC2`, which lipid storage change, negative = inhibition is on record?
A: inconclusive: 1.66%

Q: Which Potency does the source give for `CCc1noc(C)c1C(=O)OCC(=O)NC(=O)c1ccccc1OC` here?
A: inconclusive: 20.6 µM [falling, single point]

Q: For `CCN(CC)C(=O)N1CCN(c2c([N+](=O)[O-])c(=O)oc3ccccc23)CC1`, which lipid storage change, negative = inhibition is on record?
A: inconclusive: 14.3%

Q: Which Potency does the source give for `Cc1cc(C)c2c(C)nn(-c3ccccc3)c2n1` here?
A: inconclusive: 0.82 µM [rising, full curve]

Q: Which Potency does the source give for `COc1cccc(CN(C)C(=O)c2ccccc2Sc2ccccc2C#N)c1` here?
A: inconclusive: 29.1 µM [activator, single point]

Q: With `CCCc1cc(C(=O)Nc2cc(C)nn2-c2ccccc2)no1` as the compound, how does the lipid storage change, negative = inhibition read?
A: inconclusive: 7.21% [at 9.22 µM]

Q: With `COc1ccc(S(=O)(=O)N2CCC(C(=O)NCCN3CCOCC3)CC2)cc1C` as the compound, how does the Potency read?
A: inconclusive: 0.517 µM [activator, full curve]

Q: With `CCC(=O)N1CCN(CCN=CC2=C(O)CC(C)(C)CC2=O)CC1` as the compound, how does the lipid storage change, negative = inhibition read?
A: inconclusive: -36.9%

Q: Which lipid storage change, negative = inhibition does the source give for `O=S(=O)(c1cc(O)ccc1O)c1cccc2c(S(=O)(=O)c3cc(O)ccc3O)cccc12` here?
A: inconclusive: 39.8%

Q: For `CCOc1ccc(C(=O)Nc2nnc(C)s2)cc1OCC`, which Potency is on record?
A: inconclusive: 29.1 µM [activator, single point]

Q: With `CCN(CC)S(=O)(=O)c1cccc(-c2nnc(SCC(=O)NC)n2CCc2ccccc2)c1` as the compound, how does the lipid storage change, negative = inhibition read?
A: inconclusive: -37.8%

Q: For `O=S(=O)(NCC(c1ccco1)N1CCOCC1)c1ccc(Cl)cc1` (centres undefined), which lipid storage change, negative = inhibition is on record?
A: inconclusive: -5.11%

Q: For `CN(Cc1ccccc1)c1ccc(C(CC(N)=O)NC(=O)Cc2ccc(Br)cc2)cc1[N+](=O)[O-]` (centres undefined), which Potency is on record?
A: inconclusive: 32.6 µM [falling, single point]

Q: Which lipid storage change, negative = inhibition does the source give for `CCCCOC(=O)CSc1nc2c(cc1C#N)C(=O)CC(C)(C)C2` here?
A: inconclusive: -14.5%

Q: For `COC(=O)C1=C(C)N(Cc2ccccc2)C(=NCC2CC2)N[C@H]1c1ccc(Br)cc1`, which Potency is on record?
A: inconclusive: 29.1 µM [cytotoxic, single point]

Q: For `COc1cc(CNc2nnnn2C)cc(OC)c1OC`, which lipid storage change, negative = inhibition is on record?
A: inconclusive: -9.41%

Q: For `CCOc1ccccc1N(CC(=O)Nc1ccc(OC)cc1)S(=O)(=O)c1ccccc1`, which lipid storage change, negative = inhibition is on record?
A: inconclusive: -30.7%

Q: With `Nc1ccc(Sc2ccccc2CC(=O)O)cc1` as the compound, how does the lipid storage change, negative = inhibition read?
A: inconclusive: -23.2%

Q: Which lipid storage change, negative = inhibition does the source give for `COc1cc(C)c(Cl)cc1S(=O)(=O)NCCCN1CCOCC1` here?
A: inconclusive: -1.39%

Q: For `CC(=O)NCC(=O)OCC(=O)c1ccc(Br)cc1`, which lipid storage change, negative = inhibition is on record?
A: inconclusive: -68.3%
